Measurements reported in PubChem BioAssay AID1259254 (NCATS, 2017)
This is a random part of about 59,000 reagents tested. In the full data, about 1,550 (2.6%) are marked active. 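G2 share is only a proxy for re-replication; each gene was hit by three separate siRNAs, and active genes were retested.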 The raw values are shown without normalisation. The numbers tell different reagents against one gene apart. The record does not give: the amount of reagent.

Screen: 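Genome-wide screen for genes that prevent DNA re-replication in cancer cells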 (primary screen)
Cell system: human HCT116 colorectal cancer cells
Knock-down reagent: single siRNA against human genes
Time to read-out: 3 days
Measurement: 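Imaged Hoechst DNA stain sorts each cell into a cycle phase by DNA amount; per plate, G2 fraction set to 0% for non-targeting and 100% for GMNN siRNA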
Reading the numbers: G2 robust z-score and G2 cells, % of GMNN control: higher = more G2 cells, more excess DNA replication; raw share of cells in G2: higher = larger share of cells with G2 DNA content
Rule for the call: 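Active siRNAs have a G2 robust z of 5 or more median absolute deviations over the median, which in these data means about 38% or higher of GMNN control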

target gene	siRNA no.	G2 robust z-score	G2 cells, % of GMNN control	raw share of cells in G2 (%)	Call
REXO2 (RNA exonuclease 2)	1	-0.841	-2.95	3.02	inactive
REXO2 (RNA exonuclease 2)	2	-1.19	-5.42	3.7	inactive
REXO2 (RNA exonuclease 2)	3	0.278	4.92	5.82	inactive
LRRTM3 (leucine rich repeat transmembrane neuronal 3)	1	0.859	9.01	7.58	inactive
LRRTM3 (leucine rich repeat transmembrane neuronal 3)	2	0.05	3.32	6.26	inactive
LRRTM3 (leucine rich repeat transmembrane neuronal 3)	3	1.79	15.6	12.6	inactive
SRI (sorcin)	1	0.524	6.65	7.92	inactive
SRI (sorcin)	2	-1.12	-4.93	2.86	inactive
SRI (sorcin)	3	-0.416	0.0436	3.97	inactive
GNL3L (G protein nucleolar 3 like)	1	0.0986	3.66	5.6	inactive
GNL3L (G protein nucleolar 3 like)	2	1.28	12	8.38	inactive
GNL3L (G protein nucleolar 3 like)	3	1.13	11	10.9	inactive
RASSF10 (Ras association domain family member 10)	1	-0.528	-0.748	2.93	inactive
RASSF10 (Ras association domain family member 10)	2	0.0478	3.3	4.9	inactive
RASSF10 (Ras association domain family member 10)	3	-0.275	1.03	3.64	inactive
PIGG	1	-0.141	1.97	4.31	inactive
PIGG	2	0.128	3.87	5.9	inactive
PIGG	3	1.33	12.4	7.28	inactive
LRRC37A3 (leucine rich repeat containing 37 member A3)	1	0.777	8.43	6.88	inactive
LRRC37A3 (leucine rich repeat containing 37 member A3)	2	2.55	20.9	12.4	inactive
LRRC37A3 (leucine rich repeat containing 37 member A3)	3	-0.873	-3.18	2.91	inactive
CRYGB (crystallin gamma B)	1	-0.241	1.27	5.9	inactive
CRYGB (crystallin gamma B)	2	0.815	8.7	7.28	inactive
CRYGB (crystallin gamma B)	3	-0.284	0.971	3.9	inactive
C2orf76 (chromosome 2 open reading frame 76)	1	-0.36	0.433	3.48	inactive
C2orf76 (chromosome 2 open reading frame 76)	2	1.48	13.3	8.44	inactive
C2orf76 (chromosome 2 open reading frame 76)	3	0.248	4.71	6.05	inactive
LARP6 (La ribonucleoprotein 6, translational regulator)	1	-0.885	-3.26	2.97	inactive
LARP6 (La ribonucleoprotein 6, translational regulator)	2	-1.31	-6.27	2.19	inactive
LARP6 (La ribonucleoprotein 6, translational regulator)	3	1.65	14.6	12.8	inactive
IRF2 (interferon regulatory factor 2)	1	-0.288	0.938	4.55	inactive
IRF2 (interferon regulatory factor 2)	2	-0.938	-3.63	4.3	inactive
IRF2 (interferon regulatory factor 2)	3	0.443	6.09	7.26	inactive
TAS2R4 (taste 2 receptor member 4)	1	3.7	29	14.9	inactive
TAS2R4 (taste 2 receptor member 4)	2	3.08	24.7	13.9	inactive
TAS2R4 (taste 2 receptor member 4)	3	4.02	31.3	13.1	inactive

Reformatted: results already given.
target gene | siRNA no. | G2 robust z-score | G2 cells, % of GMNN control | raw share of cells in G2 (%) | Call
REXO2 (RNA exonuclease 2) | 3 | 0.278 | 4.92 | 5.82 | inactive
LRRTM3 (leucine rich repeat transmembrane neuronal 3) | 1 | 0.859 | 9.01 | 7.58 | inactive
LRRTM3 (leucine rich repeat transmembrane neuronal 3) | 2 | 0.05 | 3.32 | 6.26 | inactive
LRRTM3 (leucine rich repeat transmembrane neuronal 3) | 3 | 1.79 | 15.6 | 12.6 | inactive

The results go on.
target gene	siRNA no.	G2 robust z-score	G2 cells, % of GMNN control	raw share of cells in G2 (%)	Call
CSPG4 (chondroitin sulfate proteoglycan 4)	1	0.39	5.71	7.98	inactive
CSPG4 (chondroitin sulfate proteoglycan 4)	2	-0.419	0.0221	4.1	inactive
CSPG4 (chondroitin sulfate proteoglycan 4)	3	-0.514	-0.65	3.27	inactive
FRMPD4 (FERM and PDZ domain containing 4)	1	4.03	31.3	19.5	inactive
FRMPD4 (FERM and PDZ domain containing 4)	2	-0.22	1.42	4.54	inactive
FRMPD4 (FERM and PDZ domain containing 4)	3	-0.0861	2.36	4.26	inactive
CSTPP1	1	0.544	6.79	7.54	inactive
CSTPP1	2	0.493	6.44	7.49	inactive
CSTPP1	3	7.8	57.8	18	active
HCP5 (HLA complex P5)	1	-0.891	-3.3	3.02	inactive
HCP5 (HLA complex P5)	2	-0.69	-1.89	2.69	inactive
HCP5 (HLA complex P5)	3	-0.748	-2.29	2.06	inactive
LINC00479 (long independently transcribed non-coding RNA 479)	1	-0.941	-3.66	2.6	inactive
LINC00479 (long independently transcribed non-coding RNA 479)	2	-0.613	-1.35	2.5	inactive
LINC00479 (long independently transcribed non-coding RNA 479)	3	-0.619	-1.38	2.59	inactive
PRPF4BP1 (PRPF4B pseudogene 1)	1	-0.789	-2.59	2.2	inactive
PRPF4BP1 (PRPF4B pseudogene 1)	2	0.66	7.61	5.98	inactive
PRPF4BP1 (PRPF4B pseudogene 1)	3	2.09	17.6	8.01	inactive
OGFOD1	1	-0.55	-0.9	6.04	inactive
OGFOD1	2	-0.343	0.554	4.64	inactive
OGFOD1	3	4.68	35.9	19.3	inactive
PEX11A (peroxisomal biogenesis factor 11 alpha)	1	5.39	40.9	23.3	active
PEX11A (peroxisomal biogenesis factor 11 alpha)	2	0.257	4.78	5.79	inactive
PEX11A (peroxisomal biogenesis factor 11 alpha)	3	0.236	4.63	4.98	inactive
RAB39A (RAB39A, member RAS oncogene family)	1	-0.0972	2.28	6.99	inactive
RAB39A (RAB39A, member RAS oncogene family)	2	-0.47	-0.343	4.12	inactive
RAB39A (RAB39A, member RAS oncogene family)	3	-0.00824	2.91	4.92	inactive
MARF1 (meiosis regulator and mRNA stability factor 1)	1	-0.692	-1.9	4.47	inactive
MARF1 (meiosis regulator and mRNA stability factor 1)	2	-0.241	1.27	4.48	inactive
MARF1 (meiosis regulator and mRNA stability factor 1)	3	2.24	18.7	10.2	inactive
UBP1 (upstream binding protein 1)	1	-0.0316	2.75	4.55	inactive
UBP1 (upstream binding protein 1)	2	1.42	12.9	10.9	inactive
UBP1 (upstream binding protein 1)	3	-0.712	-2.05	2.37	inactive
